This note sets out measurements from publication PMC5637157.

Sequences of proteins named here, by UniProt entry; tags and fusion partners are left off.
UniProt P38606: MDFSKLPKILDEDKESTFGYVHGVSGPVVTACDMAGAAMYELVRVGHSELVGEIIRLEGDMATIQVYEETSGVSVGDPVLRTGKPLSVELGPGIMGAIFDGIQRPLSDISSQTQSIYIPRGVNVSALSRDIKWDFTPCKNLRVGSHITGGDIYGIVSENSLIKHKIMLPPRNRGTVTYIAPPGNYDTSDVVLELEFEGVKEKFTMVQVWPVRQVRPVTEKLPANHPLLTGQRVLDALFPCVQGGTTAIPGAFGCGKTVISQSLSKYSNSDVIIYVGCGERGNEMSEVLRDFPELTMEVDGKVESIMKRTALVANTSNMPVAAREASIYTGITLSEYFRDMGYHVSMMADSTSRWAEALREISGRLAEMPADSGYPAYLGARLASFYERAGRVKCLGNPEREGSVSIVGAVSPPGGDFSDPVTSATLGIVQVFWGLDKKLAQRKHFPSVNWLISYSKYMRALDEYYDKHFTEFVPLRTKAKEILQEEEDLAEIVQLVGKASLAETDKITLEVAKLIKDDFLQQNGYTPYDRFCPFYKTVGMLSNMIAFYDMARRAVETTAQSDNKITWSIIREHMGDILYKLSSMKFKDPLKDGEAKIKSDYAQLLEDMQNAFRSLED

These are yes or no findings as the source states them, for the method shown. In cells and extracts the contact can be indirect. Some binding calls cover weakened binding; strength is not graded here.

This assay concerns the target V-ATPase catalytic subunit A (ATP6V1A) (human (endogenous in HEK293)) (UniProt P38606). Description: co-IP; endogenous ATP6V1A immunoprecipitated from lysates of HEK293 cells overexpressing murine Cish or CishΔSOCS box; cells treated with proteasome inhibitor MG132 for 5 hr before lysis; Cish detected by western blot; empty vector (pcDNA) as negative control.

B1: murine Cish (cytokine-inducible SH2-containing protein), full sequence (protein, UniProt Q62225 1-257)
chain: MVLCVQGSCPLLAVEQIGRRPLWAQSLELPGPAMQPLPTGAFPEEVTEETPVQAENEPKVLDPEGDLLCIAKTFSYLRESGWYWGSITASEARQHLQKMPEGTFLVRDSTHPSYLFTLSVKTTRGPTNVRIEYADSSFRLDSNCLSRPRILAFPDVVSLVQHYVASCAADTRSDSPDPAPTPALPMSKQDAPSDSVLPIPVATAVHLKLVQPFVRRSSARSLQHLCRLVINRLVADVDCLPLPRRMADYLRQYPFQL
With B1, the binding entry is reported as “binds”.
